Data taken from paper PMC5370183, “Kinetics of the LOV domain of ZEITLUPE determine its circadian function in Arabidopsis” (eLife, 2017).
These are yes or no findings as the source states them, for the method shown. Binding seen in cells or lysates may run through a third protein. Some binding calls cover weakened binding; strength is not graded here. For some assays here: Tags and fused reporters may be left off the sequences shown.

Chains of the proteins cited; added tags and fusions are not shown.
UniProt Q9FHW7: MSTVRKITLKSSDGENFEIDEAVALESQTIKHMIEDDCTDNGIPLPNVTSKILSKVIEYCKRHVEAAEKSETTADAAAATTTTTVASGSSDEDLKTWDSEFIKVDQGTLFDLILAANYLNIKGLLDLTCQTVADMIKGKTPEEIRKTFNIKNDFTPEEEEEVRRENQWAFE
UniProt Q94BT6: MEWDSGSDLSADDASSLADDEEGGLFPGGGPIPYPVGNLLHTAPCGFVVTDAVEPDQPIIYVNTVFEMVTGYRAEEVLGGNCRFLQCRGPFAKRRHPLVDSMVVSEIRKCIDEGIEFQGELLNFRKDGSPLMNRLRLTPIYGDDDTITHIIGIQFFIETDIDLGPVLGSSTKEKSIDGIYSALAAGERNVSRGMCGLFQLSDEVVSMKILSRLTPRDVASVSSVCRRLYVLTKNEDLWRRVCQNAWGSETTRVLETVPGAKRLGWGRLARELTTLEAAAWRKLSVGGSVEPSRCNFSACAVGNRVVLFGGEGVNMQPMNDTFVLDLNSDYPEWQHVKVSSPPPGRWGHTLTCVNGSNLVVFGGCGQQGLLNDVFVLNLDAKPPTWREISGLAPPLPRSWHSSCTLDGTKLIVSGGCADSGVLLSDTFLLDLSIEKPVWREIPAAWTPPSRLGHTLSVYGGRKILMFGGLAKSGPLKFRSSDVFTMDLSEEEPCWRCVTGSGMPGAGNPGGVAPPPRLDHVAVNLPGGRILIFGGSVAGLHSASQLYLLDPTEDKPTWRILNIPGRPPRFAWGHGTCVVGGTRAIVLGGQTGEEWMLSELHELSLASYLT

How the values were obtained:
[1] = biological target: T1, GI-GFP (GIGANTEA) (Arabidopsis thaliana) (UniProt Q9SQI2); assay: co-IP; transient co-expression in N. benthamiana, continuous light or dark for 24 hr; GI-GFP precipitated with GFP antibody, ZTL variants detected with HA antibody
T1 sequence: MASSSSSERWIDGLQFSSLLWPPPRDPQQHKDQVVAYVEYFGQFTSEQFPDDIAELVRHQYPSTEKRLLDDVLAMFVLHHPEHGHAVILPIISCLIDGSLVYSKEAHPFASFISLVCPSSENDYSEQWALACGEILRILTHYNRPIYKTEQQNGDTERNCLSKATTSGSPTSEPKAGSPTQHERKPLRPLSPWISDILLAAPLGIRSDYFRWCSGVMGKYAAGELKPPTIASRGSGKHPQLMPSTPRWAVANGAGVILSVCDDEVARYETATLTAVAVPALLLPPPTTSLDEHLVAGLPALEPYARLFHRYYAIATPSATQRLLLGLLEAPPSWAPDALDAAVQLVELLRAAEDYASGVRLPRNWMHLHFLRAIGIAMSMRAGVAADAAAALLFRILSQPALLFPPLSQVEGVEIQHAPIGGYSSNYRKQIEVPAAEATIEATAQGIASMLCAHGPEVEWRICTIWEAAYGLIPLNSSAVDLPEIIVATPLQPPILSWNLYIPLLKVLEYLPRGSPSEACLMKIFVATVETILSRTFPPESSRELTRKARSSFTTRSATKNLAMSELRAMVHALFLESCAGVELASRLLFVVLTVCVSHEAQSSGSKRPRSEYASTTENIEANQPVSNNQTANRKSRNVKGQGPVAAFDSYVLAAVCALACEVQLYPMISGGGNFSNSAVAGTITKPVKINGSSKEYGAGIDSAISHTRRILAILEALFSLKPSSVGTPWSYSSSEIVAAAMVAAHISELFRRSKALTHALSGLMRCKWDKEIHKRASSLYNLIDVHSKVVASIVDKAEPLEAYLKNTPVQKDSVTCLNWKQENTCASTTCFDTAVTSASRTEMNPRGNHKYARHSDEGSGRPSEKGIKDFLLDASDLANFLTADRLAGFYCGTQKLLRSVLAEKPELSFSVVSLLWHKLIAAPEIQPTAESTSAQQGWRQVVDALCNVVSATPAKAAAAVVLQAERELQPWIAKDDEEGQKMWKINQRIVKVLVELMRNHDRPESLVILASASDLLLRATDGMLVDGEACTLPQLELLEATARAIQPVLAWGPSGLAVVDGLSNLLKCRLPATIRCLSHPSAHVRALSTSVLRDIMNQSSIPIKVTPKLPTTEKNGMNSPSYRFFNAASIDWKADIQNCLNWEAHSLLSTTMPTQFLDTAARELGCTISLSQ

[2] = biological target: ARABIDOPSIS SKP1-LIKE 2 (ASK2) (Arabidopsis thaliana) (UniProt Q9FHW7); assay: co-IP; transient co-expression in N. benthamiana, light or darkness; precipitated with anti-FLAG, ZTL variants detected with anti-HA antibody

HA-ZTL (ZEITLUPE, wild type) (from UniProt Q94BT6 1-609)
binding [1]: binds | binding [2]: binds
